Measured values reported in the supplement of paper PMC8288183.
The other results are listed elsewhere or left out. Repeats are few or missing, and single values can be far off.

Target: T1, NSUN6 (UniProt Q8TEA1)
T1 sequence: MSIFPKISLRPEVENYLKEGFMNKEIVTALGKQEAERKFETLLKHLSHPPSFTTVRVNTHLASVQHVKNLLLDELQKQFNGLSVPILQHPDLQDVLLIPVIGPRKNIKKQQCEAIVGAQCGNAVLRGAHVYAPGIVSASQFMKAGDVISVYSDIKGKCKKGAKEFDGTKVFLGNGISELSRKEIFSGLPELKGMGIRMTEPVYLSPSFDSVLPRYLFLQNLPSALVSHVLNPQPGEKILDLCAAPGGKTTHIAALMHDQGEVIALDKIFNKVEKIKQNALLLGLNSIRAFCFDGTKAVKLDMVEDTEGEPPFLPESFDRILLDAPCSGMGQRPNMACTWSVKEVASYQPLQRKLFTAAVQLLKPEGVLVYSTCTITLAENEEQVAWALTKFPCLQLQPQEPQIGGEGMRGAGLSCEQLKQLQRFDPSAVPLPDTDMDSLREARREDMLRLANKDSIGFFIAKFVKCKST
Assay: m5C methylation level at the target C (C/(C+U) bisulfite reads) (fraction); higher = more methylation by NSUN6; extreme values may be limits of the assay
Conditions: HEK293T (wild-type)
Description: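 High-throughput mutagenesis reporter. About 140 bp oligo-pool variants of four natural Type II m5C substrates (substrate #1 chr15:91425541; #2 RAB15 3'UTR chr14:65413377; #3 SULT2A1 5'UTR chr19:48389569; #4 NAAA CDS chr4:76857361) were cloned as 3'UTR elements of psiCHECK-2 luciferase and transfected into wild-type HEK293T cells. Total RNA was taken 48 h later and m5C level was measured by targeted bisulfite sequencing as C/(C+U) reads at the m5C site (one library).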

[1] = parent substrate: substrate #1 (main figure)

Sequence	m5C methylation level at the target C [1]	m5C methylation level at the target C (parent substrate: substrate #2)	m5C methylation level at the target C (parent substrate: substrate #3)	m5C methylation level at the target C (parent substrate: substrate #4)
CCGAAG	0.00482	0.00308	0	0.00176
UCCGAU	0.000472	0.0119	0.00269	0.00131
CCUUCC	0.00104	0.00178	0	0.00111
CCCUCC	0.00216	0	0	0
GCCAAA	0.00343	0	0.000685	0
GCCCAG	0.000922	0.00228	0.000438	0.00193
ACAUUG	0.000697	0.00849	0	0
CCAGAU	0.00125	0.0171	0	0.00241
CCCACU	0	0.0016	0.000591	0
UCUUAC	0.000589	0	0	0.000463
GCAAUA	0.000869	0.00142	0.00265	0.00152
GCGAAG	0.00247	0	0.000736	0.00256
ACAAAU	0	0	0	0.00057
CCUGCU	0.00334	0.000935	0	0.00182
CCAUCU	0	0	0.000904	0
UCGUAG	0.0093	0.00307	0.000406	0.00151
GCUCCU	0.000962	0.00248	0.0025	0.00224
ACAAGA	0.000428	0	0.00526	0
CCACUU	0	0	0.00751	0
CCAUUA	0	0.00963	0	0.000689
CCUUGA	0	0.00217	0	0.00127
ACUCCG	0.00144	0.00253	0.00617	0
UCUUUU	0	0.00147	0	0
GCAUUG	0	0	0.00153	0

Sequence	m5C methylation level at the target C [1]	m5C methylation level at the target C (parent substrate: substrate #2)	m5C methylation level at the target C (parent substrate: substrate #3)	m5C methylation level at the target C (parent substrate: substrate #4)
GCGGAC	0.0035	0.00211	0.000495	0.000467
CCUGUG	0.000846	0	0.00228	0.00407
UCCAUU	0.00399	0.00519	0.00039	0.000359
CCUGGG	0.00225	0	0.000354	0.000734
UCUAAC	0	0.0013	0.00102	0
GCCAUU	0.000741	0	0.00427	0
UCGAGU	0	0	0.000952	0
UCCCUU	0	0.0021	0.00151	0.00156
GCGUUA	0.000621	0.00533	0.00322	0.00688
GCGCCG	0.00273	0.000781	0.00222	0.00755
GCAAAC	0.00263	0.000903	0.000619	0.00984
UCGGGG	0.00263	0	0	0.00534
ACCUCU	0	0.00265	0.000504	0.00137
ACAGAG	0.0106	0.00335	0	0
CCGCCA	0.00205	0	0.00105	0.00189
GCCCUA	0	0	0.00594	0.00339
GCCCGG	0	0	0.0035	0.0027
GCUCGA	0.00911	0	0.00132	0.000867
UCUCCG	0.00046	0	0.00205	0.00214
GCAUUU	0.00159	0.0145	0.00156	0
CCAGAG	0.00573	0	0.00229	0
ACGUAU	0	0	0.00198	0.00413
UCGGCG	0.000866	0.00481	0.00289	0
CCGGUC	0	0.00507	0.00983	0

Sequence	m5C methylation level at the target C [1]	m5C methylation level at the target C (parent substrate: substrate #2)	m5C methylation level at the target C (parent substrate: substrate #3)	m5C methylation level at the target C (parent substrate: substrate #4)
GCCGAC	0.000828	0.000733	0.00501	0.000824
CCGAUG	0	0	0.000586	0.00371
GCCCCC	0.00286	0.00461	0.0011	0.00106
ACCCAA	0.000706	0.00248	0	0
ACCCUA	0.000595	0.0128	0.00815	0.00296
ACCUGG	0	0	0.00219	0.00441
ACGGUA	0.0201	0.00215	0.00122	0
UCCCCA	0	0.00837	0.00296	0.00197
CCGUCG	0.00158	0	0.00186	0.0019
UCAUUG	0	0	0.00184	0
ACACUG	0.00082	0.00101	0.00193	0
GCAUUC	0.00129	0.00188	0	0
CCGGCU	0	0.00124	0.000352	0.00261
GCCAAU	0.00404	0	0	0.00124
UCCACA	0.00369	0.00171	0.000507	0.000728
ACGCGU	0.00179	0	0.000687	0.00223
UCUGCG	0.00132	0.00435	0.000481	0
UCUUAU	0.000794	0	0.000339	0.000871
GCGCCA	0.00105	0	0.00737	0.00313
CCGUCU	0	0	0.00772	0
CCAUUU	0.00161	0	0	0
UCAUGU	0	0	0.00607	0.00776
UCAUCC	0	0	0.00437	0.0128
UCGUGG	0.000804	0.00809	0.00205	0

Looked up one by one from above:
Sequence	m5C methylation level at the target C [1]	m5C methylation level at the target C (parent substrate: substrate #2)	m5C methylation level at the target C (parent substrate: substrate #3)	m5C methylation level at the target C (parent substrate: substrate #4)
GCCCUA	0	0	0.00594	0.00339
ACGUAU	0	0	0.00198	0.00413
ACAGAG	0.0106	0.00335	0	0
GCUCCU	0.000962	0.00248	0.0025	0.00224
GCGCCA	0.00105	0	0.00737	0.00313
